{"source": "PubChem BioAssay AID2685", "about": "(National Center for Advancing Translational Sciences (NCATS), 2010)", "note": "The whole screen tested about 320,000 compounds, of which about 2,100 (0.66%) were called active. The shares of active, inactive and inconclusive entries below differ from those in the screen. Calls follow the shape of the dose curve; as a rule, active = well fitted inhibition curve with a large enough effect in the signal ratio, with a control signal flat (not every such curve was filed as active); inconclusive = small, poorly fitted or top-dose-only effect, or effect the other way, or a change in a side signal; inactive = flat fitted curve, though single readings scatter; the % refers to the signal ratio. Potencies of inconclusive entries are doubtful fits and often do not repeat. % is scaled to controls: 0 for no effect and ±100 for the full control effect; potency is read from the fitted curve at half-maximal effect.", "data": [{"experiment": "qHTS Assay for Lipid Storage Modulators in Drosophila S3 Cells", "conditions": "BODIPY lipid droplet fluorescence, 18-24 h, cells fed with added oleic acid; lipid storage change, negative = inhibition: at 46.1 µM (top of the series) unless noted", "method_in_brief": "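Laser-scanning cytometry quantifies lipid droplet accumulation (500–530 nm total intensity; droplet/cell object ratio) in oleic acid-fed (400 uM added) Drosophila S3 cells treated with a concentration series. 20 uM Triacsin C defined 100% inhibition.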", "values": [{"smiles": "Cc1cccc(NC(=O)/C(C#N)=C/c2ccc(Sc3ccccc3)o2)c1C", "Potency": "inconclusive: 6.51 µM [falling, single point]"}, {"smiles": "Cc1ccc(N=Nc2c(O)c3ccccc3[nH]c2=O)c(S(=O)(=O)N(C)C)c1", "lipid storage change, negative = inhibition": "inactive"}, {"smiles": "COc1ccc(OC)c(/C=C2\\NC(=O)NC2=O)c1", "lipid storage change, negative = inhibition": "inconclusive: 15.9%"}, {"smiles": "CC1=[N+](CC(=O)c2ccccc2)CCn2cccc21", "Potency": "inconclusive: 0.651 µM [falling, full curve]"}, {"smiles": "C=CCn1c(SCC(=O)N(C)C)nc2sc3c(c2c1=O)CCC3", "Potency": "inconclusive: 0.517 µM [falling, single point]"}, {"smiles": "COc1ccc(-c2nnc(SC(C)C(=O)Nc3c(C)n(C)n(-c4ccccc4)c3=O)o2)cc1", "note": "(stereo unspecified)", "lipid storage change, negative = inhibition": "inconclusive: -18.2%"}, {"smiles": "Cc1ccc(/C=C/C(=O)NN2CCN(C)CC2)cc1", "lipid storage change, negative = inhibition": "inconclusive: 29.6%"}, {"smiles": "CS(=O)(=O)Nc1ccc(C(=O)NCc2cccnc2)cc1", "lipid storage change, negative = inhibition": "inconclusive: -28.5%"}, {"smiles": "COc1cccc2cc(/C(C)=N/NC(=O)c3ccco3)oc12", "lipid storage change, negative = inhibition": "inconclusive: -16.7%"}, {"smiles": "Cc1sc(NC(=O)CSc2ncn(-c3ccccc3)n2)nc1-c1ccccc1", "Potency": "inconclusive: 29.1 µM [cytotoxic, single point]"}, {"smiles": "O=C(Nc1ccccc1)C1CC2CCCC(C1)C2=O", "note": "(stereo unspecified)", "lipid storage change, negative = inhibition": "inconclusive: -25.3%"}, {"smiles": "CCCCCCC(=O)N=Nc1c(O)[nH]c2ccc([N+](=O)[O-])cc12", "Potency": "inconclusive: 18.4 µM [activator, single point]"}, {"smiles": "CCN(CC)C(=O)CN1CCC(c2nc3cc(C)c(C)cc3[nH]2)CC1", "Potency": "inconclusive: 0.731 µM [falling, full curve, poor fit]"}, {"smiles": "COc1cc(N)c(Cl)cc1C(=O)OCC(=O)NC1CCCC1", "lipid storage change, negative = inhibition": "inconclusive: 22.7%"}, {"smiles": "CCOC(=O)c1c(NC(=O)C(C)Sc2cccc[n+]2[O-])sc2c1CCN(Cc1ccccc1)C2", "note": "(stereo unspecified)", "lipid storage change, negative = inhibition": "inconclusive: 47.1%"}, {"smiles": "O=C(Nc1ccc2c(c1)OCCO2)C1CCCN1S(=O)(=O)c1ccc(Cl)cc1", "note": "(stereo unspecified)", "Potency": "inconclusive: 6.51 µM [activator, single point]"}, {"smiles": "Cc1cc(SCC(=O)NCCCN2CCCC2=O)nc2ccccc12", "Potency": "inconclusive: 6.51 µM [activator, partial curve, poor fit]"}, {"smiles": "Cc1ccc(S(=O)(=O)NCC2CCCO2)cc1", "note": "(stereo unspecified)", "Potency": "inconclusive: 29.1 µM [activator, single point]"}, {"smiles": "O=C(CCC(=O)N1CCOc2ccccc21)NCCCN1CCOCC1", "lipid storage change, negative = inhibition": "inconclusive: -32.6%"}, {"smiles": "O=C(CCNS(=O)(=O)c1c(Cl)cccc1Cl)OCC(=O)c1ccccc1F", "lipid storage change, negative = inhibition": "inconclusive: -5.04%"}, {"smiles": "Cc1ccc(C(=O)NCC(=O)Nc2ccc(C)c(S(=O)(=O)Nc3ccc(Cl)cc3)c2)s1", "lipid storage change, negative = inhibition": "inconclusive: 4.58%"}, {"smiles": "CCOc1ccc2[nH]c(=O)c(CN(Cc3ccco3)C(=O)c3ccc(Br)cc3)cc2c1", "Potency": "inconclusive: 18.4 µM [cytotoxic, single point]"}, {"smiles": "Cc1ccn2cc(C34CC5CC(CC(C5)C3)C4)nc2c1", "lipid storage change, negative = inhibition": "inconclusive: 11.6% [at 9.22 µM]"}, {"smiles": "Cc1c(Cl)ccc2sc(N3CCN(C(=O)C4=COCCO4)CC3)nc12", "lipid storage change, negative = inhibition": "inconclusive: -88.9%"}, {"smiles": "c1coc(CNc2nc3ccccc3n2CCN2CCOCC2)c1", "lipid storage change, negative = inhibition": "inconclusive: 28.8%"}, {"smiles": "Cc1cccc(C(=O)NCc2ccc(S(N)(=O)=O)cc2)c1[N+](=O)[O-]", "lipid storage change, negative = inhibition": "inconclusive: -58.5%"}, {"smiles": "COCCOC(=O)C1=C(C)NC(=O)NC1c1c(Cl)nc2c(C)cccn2c1=O", "note": "(stereo unspecified)", "lipid storage change, negative = inhibition": "inconclusive: 20.1%"}, {"smiles": "CC1=C(C)C(=O)N(C(C)CCc2ccccc2)C1=O", "note": "(stereo unspecified)", "Potency": "inconclusive: 0.58 µM [activator, single point]"}, {"smiles": "CCCc1nc2ccccc2[nH]1", "lipid storage change, negative = inhibition": "inconclusive: -19.1%"}, {"smiles": "O=C(O)c1cc(S(=O)(=O)N2CCN(c3ccccn3)CC2)ccc1Cl", "lipid storage change, negative = inhibition": "inconclusive: -48.8%"}, {"smiles": "N#Cc1c(N2CCCC2)nsc1-c1ccccc1", "lipid storage change, negative = inhibition": "inconclusive: 33.1%"}, {"smiles": "COC(=O)c1ccc(NC(=O)c2cccc(OC)c2)cc1", "lipid storage change, negative = inhibition": "inconclusive: 22.2%"}, {"smiles": "CC[C@H](C)[C@@H](CNC)NC[C@@H](Cc1ccc(O)cc1)NCC(C)(C)C", "Potency": "inconclusive: 29.1 µM [activator, single point]"}, {"smiles": "C=CCN1C(=O)c2ccc(C(=O)OCC(=O)N(CC)C3CCS(=O)(=O)C3)cc2C1=O", "note": "(stereo unspecified)", "lipid storage change, negative = inhibition": "inconclusive: 3.41%"}, {"smiles": "CCN(CC(=O)Nc1c(F)cccc1F)C(=O)c1ccc(-n2cncn2)c([N+](=O)[O-])c1", "lipid storage change, negative = inhibition": "inconclusive: 27.1%"}, {"smiles": "COc1ccc(C(=O)NCCSCc2ccc(Cl)cc2)cc1OC", "Potency": "inconclusive: 23.1 µM [falling, single point]"}, {"smiles": "Cc1ccc(/C(N)=N/OC(=O)c2ccc3c(c2)OCO3)cc1", "Potency": "inconclusive: 0.0046 µM [activator, full curve, poor fit]"}, {"smiles": "CCOC(=O)c1ccc(NC(=O)NC2CC3CCC(C2)N3Cc2nnnn2C(C)(C)C)cc1", "note": "(stereo unspecified)", "lipid storage change, negative = inhibition": "inconclusive: -16.5%"}, {"smiles": "COc1ccccc1C(=O)CN1C(=O)NC2(CCc3ccccc32)C1=O", "note": "(stereo unspecified)", "Potency": "inconclusive: 20.6 µM [activator, partial curve]"}, {"smiles": "CC(=O)N1c2ccccc2Sc2ccccc21", "Potency": "inconclusive: 29.1 µM [activator, single point]"}, {"smiles": "Cc1cccc(N(C(=O)c2snc(C(N)=O)c2N)C(C(=O)NC2CCCC2)c2ccncc2)c1", "note": "(stereo unspecified)", "lipid storage change, negative = inhibition": "inconclusive: -27.8%"}, {"smiles": "CC(C)NC(=O)[C@H](CSCc1ccccc1)N1Cc2ccccc2C1=O", "lipid storage change, negative = inhibition": "inconclusive: 0.836%"}, {"smiles": "N#CC1(P(=O)(c2ccccc2)c2ccccc2)CC1", "lipid storage change, negative = inhibition": "inconclusive: -9.04%"}, {"smiles": "O=C1Nc2ccccc2S/C1=C/NCc1ccccc1Cl", "Potency": "inconclusive: 13 µM [activator, partial curve]"}, {"smiles": "Cc1ccccc1Oc1nc2c(C)cccn2c(=O)c1/C=C(\\C#N)C(=O)NC1CCS(=O)(=O)C1", "note": "(stereo unspecified)", "lipid storage change, negative = inhibition": "inconclusive: -16.6%"}, {"smiles": "O=c1oc2ccccc2c(NCCc2ccccc2)c1[N+](=O)[O-]", "lipid storage change, negative = inhibition": "inconclusive: 8.51%"}, {"smiles": "N=C(c1cccc([N+](=O)[O-])c1)N1CCCCCC1", "Potency": "inconclusive: 10.3 µM [falling, partial curve]"}, {"smiles": "O=C(/C=C1\\SC(=O)N(CC(=O)Nc2ccc(Cl)cc2)C1=O)Nc1ccc(F)cc1", "lipid storage change, negative = inhibition": "inconclusive: -35.7%"}, {"smiles": "Cc1nnc(Sc2cc(C(=O)NCCCOC(C)C)c3ccccc3n2)s1", "Potency": "inconclusive: 18.4 µM [activator, single point]"}, {"smiles": "CCOC(=O)Cn1c(C)cc(=O)c2cccc(C)c21", "lipid storage change, negative = inhibition": "inconclusive: 24.7%"}, {"smiles": "Cc1noc(C)c1CSCC(=O)Nc1nc2ccc(Oc3ccccc3)cc2s1", "lipid storage change, negative = inhibition": "inconclusive: -26.4%"}, {"smiles": "CC(C)OC(=O)Cn1nnc(-c2ccccc2)n1", "Potency": "inconclusive: 0.164 µM [falling, full curve, poor fit]"}, {"smiles": "COc1ccc(OC)c(C2=NS(=O)(=O)N(C)C(C(=O)NCc3cccs3)=C2)c1", "lipid storage change, negative = inhibition": "inconclusive: -80.2%"}, {"smiles": "CCOc1ccc(-c2c[n+]3c(n2-c2ccccc2)CCCCC3)cc1", "Potency": "inconclusive: 16.4 µM [falling, single point]"}, {"smiles": "O=S(=O)(c1cc(F)ccc1F)N1CCN2CCCC2C1", "note": "(stereo unspecified)", "Potency": "inconclusive: 29.1 µM [activator, single point]"}, {"smiles": "C/C(CC(=O)Nc1ccc(Cl)cc1Cl)=N\\NC(=O)c1ccncc1", "lipid storage change, negative = inhibition": "inactive"}, {"smiles": "O=C(CSc1nncs1)Nc1ccc(N2CCCCC2)cc1", "lipid storage change, negative = inhibition": "inactive"}, {"smiles": "COc1cc(O)c2c(c1)OC(C)(C)CC2=O", "Potency": "inconclusive: 2.59 µM [falling, partial curve]"}, {"smiles": "O=C(O)C1C2C=CC(C2)C1C(=O)Nc1cccc(Cl)c1", "note": "(stereo unspecified)", "lipid storage change, negative = inhibition": "inconclusive: -65.6%"}, {"smiles": "Cc1cc(C)n(CC(=O)NC2CCCN(Cc3ccc(Cl)cc3)C2)n1", "note": "(stereo unspecified)", "Potency": "inconclusive: 29.1 µM [activator, single point]"}, {"smiles": "CCOc1ccc(N2C(=O)CC(NC3CCN(C(=O)c4cccs4)CC3)C2=O)cc1", "note": "(stereo unspecified)", "Potency": "inconclusive: 3.66 µM [activator, full curve]"}, {"smiles": "COc1ccc2cc3cc(C(=O)NCCN4CCc5ccccc5C4)sc3nc2c1", "lipid storage change, negative = inhibition": "inconclusive: 12.5%"}, {"smiles": "O=C(CSc1nnc(Cn2cnc3ccccc32)o1)c1ccccc1", "lipid storage change, negative = inhibition": "inconclusive: 15.7%"}, {"smiles": "CC(=O)OCCCNc1cc(Sc2ccc(C)cc2)c2nonc2c1[N+](=O)[O-]", "Potency": "inconclusive: 18.4 µM [falling, partial curve, poor fit]"}, {"smiles": "N#CCC(=O)NN=C1CCCCCCCCCCC1", "lipid storage change, negative = inhibition": "inconclusive: -0.656%"}, {"smiles": "O=C(CN1CCC(NC(=O)c2ccccc2F)CC1)Nc1ccc2c(c1)OCCO2", "lipid storage change, negative = inhibition": "inconclusive: 31.7%"}, {"smiles": "CC1CCCCN1C(=O)CSc1ccc(-c2ccc(F)cc2)nn1", "note": "(stereo unspecified)", "lipid storage change, negative = inhibition": "inconclusive: -60.5%"}, {"smiles": "CCN(CC)c1ccc(NC2CC(=O)N(CCc3ccc(OC)cc3)C2=O)cc1", "note": "(stereo unspecified)", "lipid storage change, negative = inhibition": "inconclusive: -47.3%"}, {"smiles": "CC(OC(=O)c1ccc(Cl)nc1)C(=O)NC1CCCC1", "note": "(stereo unspecified)", "lipid storage change, negative = inhibition": "inconclusive: -1.66%"}, {"smiles": "CCOC(=O)C(=O)Nc1ccc(S(=O)(=O)Nc2nccs2)cc1", "Potency": "inconclusive: 0.058 µM [activator, full curve, poor fit]"}, {"smiles": "CN(C(=O)COC(=O)c1ccc2c(c1)OCCO2)c1ccccc1", "lipid storage change, negative = inhibition": "inconclusive: -46.9% [at 0.00295 µM]"}, {"smiles": "COc1ccccc1N1CCN(CCCOc2ccc(F)cc2)CC1", "lipid storage change, negative = inhibition": "inconclusive: 5.48%"}, {"smiles": "COc1cc(C(=O)Nc2cccc(-c3nncn3C)c2)cc(OC)c1OC", "Potency": "inconclusive: 1.03 µM [falling, full curve]"}, {"smiles": "COc1ccc(-c2nnc(N3CCOCC3)c3ccccc23)cc1", "lipid storage change, negative = inhibition": "inconclusive: 4.11%"}, {"smiles": "CCCCOC(=O)Nc1nnc(COc2ccccc2)s1", "lipid storage change, negative = inhibition": "inactive"}, {"smiles": "Cc1ccc(C2c3[nH]c4ccccc4c3C[C@H]3C(=O)N(c4ccccc4C(=O)N4CCC(C(=O)O)CC4)C(=O)N23)cc1", "note": "(stereo partly specified)", "lipid storage change, negative = inhibition": "inconclusive: 26.6%"}]}]}
